Values quoted from earlier work, collected in patent publication US20020182162A1, “Nitric oxide (NO) donor+cGMP-PDE5 inhibitor as a topical drug for enhanced hair growth” (priority 2002, published 2002).
At least one compound was matched to its structure with a doubt left.

System: hair growth

SMILES: Nc1cc(N2CCCCC2)nc(N)[n+]1[O-] [Minoxidil, 6-(1-piperidinyl)-2,4-pyrimidinediamaine 3-oxide]
- share of adult male users in whom topical Minoxidil is effective (adult male users): about eight
- duration of continuous use after which a sharp drop in effectiveness is seen (topical, continuous use): approximately 30 months
